Results are given in words; binding and its absence hold for the method and conditions named. A result given as binding can be weak or reduced; the word gives no strength.

This note sets out measurements from publication doi:10.1101/2021.05.14.444243.

The target in the experiment is T1, N-terminally truncated SPO-11 (SPO-11Δ1-47) (C. elegans) (UniProt Q22236).
T1 sequence: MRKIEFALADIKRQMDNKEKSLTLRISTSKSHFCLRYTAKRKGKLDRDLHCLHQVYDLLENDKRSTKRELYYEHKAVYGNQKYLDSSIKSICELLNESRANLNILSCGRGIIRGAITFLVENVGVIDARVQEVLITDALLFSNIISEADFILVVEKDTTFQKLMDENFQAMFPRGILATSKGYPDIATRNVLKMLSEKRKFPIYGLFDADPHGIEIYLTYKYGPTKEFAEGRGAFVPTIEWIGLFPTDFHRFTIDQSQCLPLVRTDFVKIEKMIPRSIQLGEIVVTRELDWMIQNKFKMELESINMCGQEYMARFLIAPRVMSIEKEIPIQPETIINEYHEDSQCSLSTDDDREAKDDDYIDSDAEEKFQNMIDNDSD
As to the kind of experiment: two-hybrid.

As for DSB-1 (full-length) (C. elegans), the binding entry is reported as “binds”. The same measure for “N-terminally truncated DSB-1 (DSB-1Δ1-33) (C. elegans) (domain or fragment)”: “no binding”.
